Results are given in words; binding and its absence hold for the method and conditions named. In cells and extracts the contact can be indirect. For part of these data: Binding can be weak; no strength is given. One block for each molecule: values may come before it.
How the values were obtained:
[1] = molecular target: SH3b C3G domain fused to GST (UniProt Q13905); assay: pull-down; GST fusion protein on Glutathione Sepharose 4B beads incubated 2 h at 4 °C with lysates (1-2 mg protein) of HGF-treated cells; Western blot; only the target purified
[2] = molecular target: T1, Gab1 (mouse, mHCC1 cells) (mouse (endogenous in mHCC1)) (UniProt Q9QYY0); assay: co-IP; immunoprecipitation of MET, Gab1 or Abl from lysates of mouse Alb-R26^Met mHCC1 cells (control or shC3G); IP buffer 50 mM Tris-HCl pH 7.5, 150 mM NaCl, 1% NP40; Western blot of C3G, MET and P-MET (Y1234/Y1235)
T1 sequence: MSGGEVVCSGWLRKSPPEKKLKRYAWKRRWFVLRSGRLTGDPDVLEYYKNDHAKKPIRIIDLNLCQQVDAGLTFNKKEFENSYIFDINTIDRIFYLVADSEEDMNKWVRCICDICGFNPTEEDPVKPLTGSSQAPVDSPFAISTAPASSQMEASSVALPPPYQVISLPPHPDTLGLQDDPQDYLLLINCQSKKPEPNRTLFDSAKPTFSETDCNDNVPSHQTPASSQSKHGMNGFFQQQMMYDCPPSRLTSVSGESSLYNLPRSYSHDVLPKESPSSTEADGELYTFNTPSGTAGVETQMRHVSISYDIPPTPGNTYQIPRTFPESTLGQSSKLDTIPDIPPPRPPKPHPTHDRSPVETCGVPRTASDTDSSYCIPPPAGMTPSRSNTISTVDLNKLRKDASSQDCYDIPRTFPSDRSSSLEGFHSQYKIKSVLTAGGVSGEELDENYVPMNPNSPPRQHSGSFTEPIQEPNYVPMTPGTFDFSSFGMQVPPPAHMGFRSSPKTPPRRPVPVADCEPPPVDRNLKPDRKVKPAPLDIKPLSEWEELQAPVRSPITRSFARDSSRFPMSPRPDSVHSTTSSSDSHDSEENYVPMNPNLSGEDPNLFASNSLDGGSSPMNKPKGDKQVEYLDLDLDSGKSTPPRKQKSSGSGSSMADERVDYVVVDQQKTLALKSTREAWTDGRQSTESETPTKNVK

Protein sequences, listed by entry. Tags and fused reporters are not part of them. Lines headed by an entry give the natural chain unless they say otherwise; changes in a name come on top.
UniProt P12830: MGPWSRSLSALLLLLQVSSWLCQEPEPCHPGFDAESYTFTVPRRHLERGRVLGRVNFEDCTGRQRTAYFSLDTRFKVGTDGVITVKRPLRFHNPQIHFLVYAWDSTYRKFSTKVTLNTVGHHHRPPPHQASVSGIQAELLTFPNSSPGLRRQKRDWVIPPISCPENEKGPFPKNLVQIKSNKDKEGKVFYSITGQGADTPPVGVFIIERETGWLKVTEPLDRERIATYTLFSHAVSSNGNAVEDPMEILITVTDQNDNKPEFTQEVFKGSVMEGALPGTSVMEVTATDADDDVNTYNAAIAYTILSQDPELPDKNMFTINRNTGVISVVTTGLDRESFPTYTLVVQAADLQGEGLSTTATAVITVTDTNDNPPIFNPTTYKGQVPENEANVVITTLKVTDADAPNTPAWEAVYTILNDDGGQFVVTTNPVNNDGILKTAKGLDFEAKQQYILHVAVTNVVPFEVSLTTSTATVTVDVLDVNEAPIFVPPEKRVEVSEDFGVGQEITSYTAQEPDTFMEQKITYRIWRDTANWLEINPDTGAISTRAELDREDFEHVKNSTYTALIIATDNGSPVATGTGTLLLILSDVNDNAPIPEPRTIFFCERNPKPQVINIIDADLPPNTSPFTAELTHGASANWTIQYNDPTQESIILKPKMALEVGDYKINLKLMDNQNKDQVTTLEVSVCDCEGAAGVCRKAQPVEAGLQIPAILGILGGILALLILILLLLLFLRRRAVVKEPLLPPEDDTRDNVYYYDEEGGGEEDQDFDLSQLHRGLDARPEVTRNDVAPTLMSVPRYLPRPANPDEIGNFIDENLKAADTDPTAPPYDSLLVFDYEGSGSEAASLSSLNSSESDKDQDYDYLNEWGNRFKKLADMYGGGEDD
UniProt P46109: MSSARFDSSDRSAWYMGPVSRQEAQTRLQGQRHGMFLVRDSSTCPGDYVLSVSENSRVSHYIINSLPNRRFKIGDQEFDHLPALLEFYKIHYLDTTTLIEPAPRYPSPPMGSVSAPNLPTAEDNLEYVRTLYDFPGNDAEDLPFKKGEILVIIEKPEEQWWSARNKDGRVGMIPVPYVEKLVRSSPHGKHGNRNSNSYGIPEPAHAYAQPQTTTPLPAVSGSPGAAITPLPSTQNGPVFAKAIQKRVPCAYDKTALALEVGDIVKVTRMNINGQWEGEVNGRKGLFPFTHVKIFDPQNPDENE

[3] = molecular target: GST bound to Crk SH3 domain; assay: pull-down; GST fusion protein on Glutathione Sepharose 4B beads incubated 2 h at 4 °C with lysates (1-2 mg protein) of HGF-treated cells; Western blot; only the target purified
[4] = molecular target: C3G-binding E-cadherin domain fused to GST (UniProt P12830); assay: pull-down; as a3, lysates of cells not stimulated with HGF; only the target purified
[5] = molecular target: C3G-binding E-cadherin domain fused to GST (UniProt P12830); assay: pull-down; GST fusion protein on Glutathione Sepharose 4B beads incubated 2 h at 4 °C with lysates (1-2 mg protein) of HGF-treated cells; Western blot; only the target purified

- binding [1]: no binding
Molecule: CrkL (from UniProt P46109 1-303)

- binding [2]: binds
Molecule: C3G (mouse, mHCC1 cells)

- binding [3]: binds
- binding [1]: binds
B1: P-Gab1 (phosphorylated Gab1) (protein, UniProt Q13480 1-694)
chain: MSGGEVVCSGWLRKSPPEKKLKRYAWKRRWFVLRSGRLTGDPDVLEYYKNDHAKKPIRIIDLNLCQQVDAGLTFNKKEFENSYIFDINTIDRIFYLVADSEEEMNKWVRCICDICGFNPTEEDPVKPPGSSLQAPADLPLAINTAPPSTQADSSSATLPPPYQLINVPPHLETLGIQEDPQDYLLLINCQSKKPEPTRTHADSAKSTSSETDCNDNVPSHKNPASSQSKHGMNGFFQQQMIYDSPPSRAPSASVDSSLYNLPRSYSHDVLPKVSPSSTEADGELYVFNTPSGTSSVETQMRHVSISYDIPPTPGNTYQIPRTFPEGTLGQTSKLDTIPDIPPPRPPKPHPAHDRSPVETCSIPRTASDTDSSYCIPTAGMSPSRSNTISTVDLNKLRKDASSQDCYDIPRAFPSDRSSSLEGFHNHFKVKNVLTVGSVSSEELDENYVPMNPNSPPRQHSSSFTEPIQEANYVPMTPGTFDFSSFGMQVPPPAHMGFRSSPKTPPRRPVPVADCEPPPVDRNLKPDRKVKPAPLEIKPLPEWEELQAPVRSPITRSFARDSSRFPMSPRPDSVHSTTSSSDSHDSEENYVPMNPNLSSEDPNLFGSNSLDGGSSPMIKPKGDKQVEYLDLDLDSGKSTPPRKQKSSGSGSSVADERVDYVVVDQQKTLALKSTREAWTDGRQSTESETPAKSVK
modifications: phosphorylated (P-Gab1; site not given)

- binding [5]: binds
B2: C3G (Crk SH3-domain-binding guanine-nucleotide-releasing factor) (protein, UniProt Q13905 1-1077)
chain: MDTDSQRSHLSSFTMKLMDKFHSPKIKRTPSKKGKPAEVSVKIPEKPVNKEATDRFLPEGYPLPLDLEQQAVEFMSTSAVASRSQRQKNLSWLEEKEKEVVSALRYFKTIVDKMAIDKKVLEMLPGSASKVLEAILPLVQNDPRIQHSSALSSCYSRVYQSLANLIRWSDQVMLEGVNSEDKEMVTTVKGVIKAVLDGVKELVRLTIEKQGRPSPTSPVKPSSPASKPDGPAELPLTDREVEILNKTTGMSQSTELLPDATDEEVAPPKPPLPGIRVVDNSPPPALPPKKRQSAPSPTRVAVVAPMSRATSGSSLPVGINRQDFDVDCYAQRRLSGGSHSYGGESPRLSPCSSIGKLSKSDEQLSSLDRDSGQCSRNTSCETLDHYDPDYEFLQQDLSNADQIPQQTAWNLSPLPESLGESGSPFLGPPFQLPLGGHPQPDGPLAPGQQTDTPPALPEKKRRSAASQTADGSGCRVSYERHPSQYDNISGEDLQSTAPIPSVPYAPFAAILPFQHGGSSAPVEFVGDFTAPESTGDPEKPPPLPEKKNKHMLAYMQLLEDYSEPQPSMFYQTPQNEHIYQQKNKLLMEVYGFSDSFSGVDSVQELAPPPALPPKQRQLEPPAGKDGHPRDPSAVSGVPGKDSRDGSERAPKSPDALESAQSEEEVDELSLIDHNEIMSRLTLKQEGDDGPDVRGGSGDILLVHATETDRKDLVLYCEAFLTTYRTFISPEELIKKLQYRYEKFSPFADTFKKRVSKNTFFVLVRVVDELCLVELTEEILKLLMELVFRLVCNGELSLARVLRKNILDKVDQKKLLRCATSSQPLAARGVAARPGTLHDFHSHEIAEQLTLLDAELFYKIEIPEVLLWAKEQNEEKSPNLTQFTEHFNNMSYWVRSIIMLQEKAQDRERLLLKFIKIMKHLRKLNNFNSYLAILSALDSAPIRRLEWQKQTSEGLAEYCTLIDSSSSFRAYRAALSEVEPPCIPYLGLILQDLTFVHLGNPDYIDGKVNFSKRWQQFNILDSMRCFQQAHYDMRRNDDIINFFNDFSDHLAEEALWELSLKIKPRNITRRKTDREEKT
- binding [4]: no binding (only without HGF stimulation)

From article PMC7463771
